Here are results for 13 compounds from PubChem BioAssay AID248 (DTP/NCI, 2004).

The list does not hold the whole screen: its compounds were picked by chemical class. Other doses and runs of a compound may be missing. T/C: endpoint of the treated group in % of that of the vehicle group. Some entries give survivors of the animals treated and no T/C: the source holds a T/C of zero for them, seemingly a mark for toxic or unscored doses. Some doses without a T/C left all or most animals alive at the check, yet need not have been tolerated: survival well below the control is almost never listed, so the zero probably covers shortened survival too. Counts of survivors are from the toxicity check (mostly the fifth day) where no day follows; animals may have died later. Schedules are NCI's codes, taken here to give the interval after Q, in days (D) or hours (H), and the number of doses after X. Some schedule codes hold Z or #, which are not explained here. Some structures stand for samples that the source files as different forms (salt, stereo form or complex); doses refer to the form tested. Where survival is the endpoint, this PubChem deposit counts one and a half times the control or more as active, and values a quarter to a half above the control carry no call in these data; other NCI protocols may use other cut-offs. Some T/C values carry the count of animals alive at the toxicity check (mostly the fifth day); where neither a count nor a note follows, no animal had died by that day. Some doses were run more than once; their values stand side by side, smallest first. Some T/C values are marked as having no survivor count here; that says nothing about deaths at the dose.

For this assay, the system named is L1210 leukemia ip in BDF1 mice, survival T/C. In words: NCI In Vivo Anticancer Drug Screen. Data for tumor model L1210 Leukemia (intraperitoneal) in B6D2F1 (BDF1) mice. As to conditions: T/C endpoint: mean survival time, higher T/C = longer survival.
Setting [1] is: dose: 400.0 mg/kg/injection, schedule: Q01DX001 (ip), vehicle: saline.
The mark [2] stands for this setting: dose: 50.0 mg/kg/injection, schedule: Q04DX002 (ip), vehicle: saline.
The mark [3] stands for this setting: dose: 100.0 mg/kg/injection, schedule: Q04DX002 (ip), vehicle: saline.
Where [4] appears, read: dose: 100.0 mg/kg/injection, schedule: Q04DX003 (ip), vehicle: Klucel (hydroxypropylcellulose) (HPC).
Setting [5] is: dose: 200.0 mg/kg/injection, schedule: Q04DX003 (ip), vehicle: Klucel (hydroxypropylcellulose) (HPC).
[6] abbreviates: dose: 400.0 mg/kg/injection, schedule: Q04DX003 (ip), vehicle: Klucel (hydroxypropylcellulose) (HPC).
Where [7] appears, read: dose: 100.0 mg/kg/injection, schedule: Q01DX009 (ip), vehicle: Klucel (hydroxypropylcellulose) (HPC).
[8] abbreviates: dose: 200.0 mg/kg/injection, schedule: Q01DX009 (ip), vehicle: Klucel (hydroxypropylcellulose) (HPC).
Where [9] appears, read: dose: 400.0 mg/kg/injection, schedule: Q01DX009 (ip), vehicle: Klucel (hydroxypropylcellulose) (HPC).
[10] abbreviates: dose: 600.0 mg/kg/injection, schedule: Q01DX001 (ip), vehicle: saline.

Consider `O=P(Cl)(N1CCCC1)N1CCCC1`, for which the T/C reads like this: (dose: 100.0 mg/kg/injection, schedule: Q04DX002 (ip), vehicle: saline with Tween-80) 103 % of control; (dose: 200.0 mg/kg/injection, schedule: Q04DX002 (ip), vehicle: saline with Tween-80) 103 % of control; (dose: 400.0 mg/kg/injection, schedule: Q04DX002 (ip), vehicle: saline with Tween-80) 100 % of control [2 of 3 alive].

On to `O=C(O)CCC(=O)SCCCl`, for which the T/C is, setting by setting: (dose: 50.0 mg/kg/injection, schedule: Q01DX001 (ip), vehicle: saline) 86 % of control; (dose: 100.0 mg/kg/injection, schedule: Q01DX001 (ip), vehicle: saline) 93 % of control; under setting [1], 93 % of control [3 of 4 alive]. Under “dose: 200.0 mg/kg/injection, schedule: Q01DX001 (ip), vehicle: saline”, the survivor count is 1 of 4.

Regarding `NC1=NCCN1[N+](=O)[O-]`, the T/C (dose: 25.0 mg/kg/injection, schedule: Q04DX002 (ip), vehicle: saline) was 104 % of control; the T/C (dose: 50.0 mg/kg/injection, schedule: Q01DX009 (ip), vehicle: saline) is 116 % of control; the T/C under setting [2] is 104 % of control; the T/C (dose: 50.0 mg/kg/injection, schedule: Q04DX003 (ip), vehicle: saline) is 101 % of control; the T/C (dose: 100.0 mg/kg/injection, schedule: Q01DX009 (ip), vehicle: saline) was 116 % of control; the T/C under setting [3] is 86 % of control. In addition, the T/C is, setting by setting: under setting [4], 97 % of control; (dose: 100.0 mg/kg/injection, schedule: Q04DX003 (ip), vehicle: saline) 98 % of control [4 of 6 alive]; (dose: 200.0 mg/kg/injection, schedule: Q01DX009 (ip), vehicle: saline) 111 % of control [5 of 6 alive]; under setting [5], 94 % of control [5 of 6 alive]. For the same compound, the survivor count (dose: 200.0 mg/kg/injection, schedule: Q04DX003 (ip), vehicle: saline) is on record as 2 of 6 and the survivor count under setting [6] is 1 of 6.

Consider `CCOC(=O)Cc1ccc(N(CCCl)CCCl)cc1`, for which the T/C runs as follows: (dose: 75.0 mg/kg/injection, schedule: Q01DX001 (ip), vehicle: saline) 93 % of control; (dose: 150.0 mg/kg/injection, schedule: Q01DX001 (ip), vehicle: saline) 104 % of control; (dose: 300.0 mg/kg/injection, schedule: Q01DX001 (ip), vehicle: saline) 107 % of control.

As for `O=[N+]([O-])c1cc([N+](=O)[O-])c(NN2CCCCC2)c([N+](=O)[O-])c1`, the T/C was 95 % of control [survivor count not shown] under setting [7]; 91 % of control [survivor count not shown] under setting [4]; 97 % of control [survivor count not shown] under setting [8]; 89 % of control [survivor count not shown] under setting [5]; 93 % of control [survivor count not shown] under setting [9]; 92 % of control [survivor count not shown] under setting [6].

For `O=[N+]([O-])c1cc([N+](=O)[O-])c2nsnc2c1`, the T/C reads like this: under setting [4], 100 % of control; under setting [5], 90 % of control [5 of 6 alive]. Besides, the survivor count under setting [6] was 0 of 6.

Consider `O=P1(N(CCCl)CCCl)OCC2CCCN21` (stereo not given), for which the T/C (dose: 22.5 mg/kg/injection, schedule: Q01DX009 (ip), vehicle: saline) was 93 % of control [5 of 6 alive]; the T/C (dose: 31.25 mg/kg/injection, schedule: Q01DX Z (ip), vehicle: saline) is 103 % of control; the T/C (dose: 62.5 mg/kg/injection, schedule: Q01DX Z (ip), vehicle: saline) was 108 % of control; the T/C (dose: 90.0 mg/kg/injection, schedule: Q01DX009 (ip), vehicle: saline) is 96 % of control; the T/C (dose: 90.0 mg/kg/injection, schedule: Q01DX Z (ip), vehicle: saline) was 96 % of control; the T/C (dose: 125.0 mg/kg/injection, schedule: Q01DX Z (ip), vehicle: saline) was 103 % of control. Besides, the T/C (dose: 135.0 mg/kg/injection, schedule: Q01DX Z (ip), vehicle: saline) was 100 % of control; the T/C (dose: 204.0 mg/kg/injection, schedule: Q01DX Z (ip), vehicle: saline) was 121 % of control; the T/C (dose: 220.0 mg/kg/injection, schedule: Q01DX001 (ip), vehicle: saline) is 124 % of control; the T/C (dose: 250.0 mg/kg/injection, schedule: Q01DX Z (ip), vehicle: saline) is 117 % of control; the T/C under setting [1] is 126 % of control; the T/C (dose: 459.0 mg/kg/injection, schedule: Q01DX Z (ip), vehicle: saline) is 98 % of control [4 of 6 alive]. Further, the T/C under setting [10] was 126 % of control [4 of 6 alive]. Also, the survivor count runs as follows: (dose: 500.0 mg/kg/injection, schedule: Q01DX Z (ip), vehicle: saline) 0 of 6; (dose: 689.0 mg/kg/injection, schedule: Q01DX Z (ip), vehicle: saline) 0 of 6.

For `CN1C(O)CCOP1(=O)N(CCCl)CCCl` (stereo not given), the T/C was 110 % of control (dose: 100.0 mg/kg/injection, schedule: Q01DX001 (ip), vehicle: DMSO); 123 % of control [5 of 6 alive] (dose: 200.0 mg/kg/injection, schedule: Q01DX001 (ip), vehicle: DMSO); 189 % of control [5 of 6 alive] (dose: 400.0 mg/kg/injection, schedule: Q01DX001 (ip), vehicle: DMSO).

As for `C1CN1.NC(CC(=O)O)C(=O)O` (stereo not given), the T/C was 113 % of control under setting [2]; 105, 106, 124 % of control under setting [3]; 115 [9 of 10 alive], 120, 130 % of control (dose: 200.0 mg/kg/injection, schedule: Q04DX002 (ip), vehicle: saline); 95 [2 of 3 alive], 103 [7 of 10 alive], 109 % of control (dose: 400.0 mg/kg/injection, schedule: Q04DX002 (ip), vehicle: saline).

As for `ClCCN(CCCl)c1ccc(C2OCCO2)cc1.[C-]#[O+].[C-]#[O+].[C-]#[O+].[Cr]`, the T/C under setting [7] is 97 % of control and the T/C under setting [8] was 87 % of control. Further, the survivor count under setting [9] is reported as 6 of 6.

For `COC(=O)/C=C/N(CCF)CCCl`, the survivor count reads like this: (dose: 10.0 mg/kg/injection, schedule: Q01DX Z (ip), vehicle: other) 2 of 6; (dose: 30.0 mg/kg/injection, schedule: Q01DX Z (ip), vehicle: other) 0 of 6; (dose: 100.0 mg/kg/injection, schedule: Q01DX Z (ip), vehicle: other) 0 of 6; (dose: 300.0 mg/kg/injection, schedule: Q01DX Z (ip), vehicle: other) 0 of 6.

On to `COP(N)(=O)N(CCCl)CCCl` (stereo not given), for which the T/C is 116 % of control under setting [10]; 118 % of control (dose: 700.0 mg/kg/injection, schedule: Q01DX001 (ip), vehicle: saline); 121 % of control (dose: 800.0 mg/kg/injection, schedule: Q01DX001 (ip), vehicle: saline); 104 % of control (dose: 1000.0 mg/kg/injection, schedule: Q01DX001 (ip), vehicle: saline).

In the case of `Nc1nnc(N)nn1`, the T/C is, setting by setting: (dose: 100.0 mg/kg/injection, schedule: Q01DX001 (ip), vehicle: Klucel (hydroxypropylcellulose) (HPC)) 101 % of control; under setting [4], 104 % of control; (dose: 200.0 mg/kg/injection, schedule: Q01DX001 (ip), vehicle: Klucel (hydroxypropylcellulose) (HPC)) 108 % of control; under setting [5], 103 % of control; (dose: 400.0 mg/kg/injection, schedule: Q01DX001 (ip), vehicle: Klucel (hydroxypropylcellulose) (HPC)) 112 % of control; under setting [6], 98 % of control.
